Experimental findings from publication PMC6269467 are described below.

Results are given in words; binding and its absence hold for the method and conditions named. Some binding calls cover weakened binding; strength is not graded here.

The assay has as its target αN-catenin actin-binding domain with the helix-1 mutation (αNcat-ABD-H1) (mouse) (UniProt Q61301). Description: NMR titration; 1H-15N HSQC spectra of 15N-αNcat-ABD-H1 at sample concentrations from 0.05 mM to 1.60 mM; self-association; both purified.

B1: αN-catenin actin-binding domain with the helix-1 mutation (αNcat-ABD-H1) (domain or fragment, UniProt Q61301-2 651-905)
chain: SRTSVQTEDDQLIAGQSAGSGSAQLPQEEKAKIAEQVEIFHQEKSKLDAEVAKWDDSGNDIIVLAKQMCMIMMEMTDFTRGKGPLKNTSDVINAAKKIAEAGSRMDKLARAVADQCPDSACKQDLLAYLQRIALYCHQLNICSKVKAEVQNLGGELIVSGLDSATSLIQAAKNLMNAVVLTVKASYVASTKYQKVYGTAAVNSPVVSWKMKAPEKKPLVKREKPEEFQTRVRRGSQKKHISPVQALSEFKAMDSF
Take B1: the binding entry was “binds weakly”.
